These are yes or no findings as the source states them, for the method shown. For some assays here: In cells and extracts the contact can be indirect. Some binding calls cover weakened binding; strength is not graded here.
Columns and labels:
[1] = biological target: Drosophila dCRY (Drosophila) (UniProt O77059); experiment: co-IP (Flag-CRY with Myc-CRY) and qCo-IP (FLUC-CRY with REN-CRY) in HEK293T cells, blue light against dark (FIG. 10)
[2] = biological target: T1, SPA1 (UniProt Q9SYX2); experiment: yeast β-gal assay, dark or blue light (FIG. 5H)
T1 sequence (looked up): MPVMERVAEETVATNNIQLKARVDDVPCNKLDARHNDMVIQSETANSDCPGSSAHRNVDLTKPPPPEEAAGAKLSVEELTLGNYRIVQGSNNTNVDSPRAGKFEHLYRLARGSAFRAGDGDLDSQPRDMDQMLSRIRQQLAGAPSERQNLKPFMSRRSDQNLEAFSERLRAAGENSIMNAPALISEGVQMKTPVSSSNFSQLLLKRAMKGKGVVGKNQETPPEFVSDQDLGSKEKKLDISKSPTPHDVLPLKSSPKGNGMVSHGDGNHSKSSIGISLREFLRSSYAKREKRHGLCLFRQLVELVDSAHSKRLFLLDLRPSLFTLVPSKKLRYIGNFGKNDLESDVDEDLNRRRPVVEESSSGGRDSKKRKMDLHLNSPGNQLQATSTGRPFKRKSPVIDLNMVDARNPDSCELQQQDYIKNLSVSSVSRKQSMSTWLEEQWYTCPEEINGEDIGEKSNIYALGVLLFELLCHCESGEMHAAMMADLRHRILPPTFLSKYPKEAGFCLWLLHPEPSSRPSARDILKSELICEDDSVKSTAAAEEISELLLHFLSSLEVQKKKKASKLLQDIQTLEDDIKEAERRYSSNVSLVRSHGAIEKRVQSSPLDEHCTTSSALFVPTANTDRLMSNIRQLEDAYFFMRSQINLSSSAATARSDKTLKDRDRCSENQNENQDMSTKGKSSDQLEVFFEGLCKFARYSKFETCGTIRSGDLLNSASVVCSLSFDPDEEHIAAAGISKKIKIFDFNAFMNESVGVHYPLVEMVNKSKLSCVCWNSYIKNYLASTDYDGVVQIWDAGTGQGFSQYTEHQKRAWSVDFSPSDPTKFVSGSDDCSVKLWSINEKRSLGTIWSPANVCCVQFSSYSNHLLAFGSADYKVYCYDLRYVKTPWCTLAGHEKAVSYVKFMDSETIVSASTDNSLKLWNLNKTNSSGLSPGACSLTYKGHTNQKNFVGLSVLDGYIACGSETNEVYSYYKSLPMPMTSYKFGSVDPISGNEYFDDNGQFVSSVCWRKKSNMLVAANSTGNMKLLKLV

Sequences of proteins named here, by UniProt entry; tags and fusion partners are left off. A change or cut given only in a name is not applied to a line headed by its entry.
UniProt O77059: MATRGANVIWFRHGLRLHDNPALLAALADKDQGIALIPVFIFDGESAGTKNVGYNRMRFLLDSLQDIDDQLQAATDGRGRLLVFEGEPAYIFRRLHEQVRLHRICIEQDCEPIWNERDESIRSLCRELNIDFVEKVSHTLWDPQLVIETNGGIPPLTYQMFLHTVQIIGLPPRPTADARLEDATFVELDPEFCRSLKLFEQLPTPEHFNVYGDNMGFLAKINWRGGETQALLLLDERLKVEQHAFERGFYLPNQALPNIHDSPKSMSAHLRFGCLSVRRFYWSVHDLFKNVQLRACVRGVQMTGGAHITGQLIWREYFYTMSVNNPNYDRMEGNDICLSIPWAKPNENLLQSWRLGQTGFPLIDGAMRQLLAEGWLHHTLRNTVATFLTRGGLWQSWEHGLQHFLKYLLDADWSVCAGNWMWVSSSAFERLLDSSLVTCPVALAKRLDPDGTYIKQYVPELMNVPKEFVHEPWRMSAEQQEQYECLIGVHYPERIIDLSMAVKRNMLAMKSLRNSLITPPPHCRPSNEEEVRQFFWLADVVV
UniProt Q96524: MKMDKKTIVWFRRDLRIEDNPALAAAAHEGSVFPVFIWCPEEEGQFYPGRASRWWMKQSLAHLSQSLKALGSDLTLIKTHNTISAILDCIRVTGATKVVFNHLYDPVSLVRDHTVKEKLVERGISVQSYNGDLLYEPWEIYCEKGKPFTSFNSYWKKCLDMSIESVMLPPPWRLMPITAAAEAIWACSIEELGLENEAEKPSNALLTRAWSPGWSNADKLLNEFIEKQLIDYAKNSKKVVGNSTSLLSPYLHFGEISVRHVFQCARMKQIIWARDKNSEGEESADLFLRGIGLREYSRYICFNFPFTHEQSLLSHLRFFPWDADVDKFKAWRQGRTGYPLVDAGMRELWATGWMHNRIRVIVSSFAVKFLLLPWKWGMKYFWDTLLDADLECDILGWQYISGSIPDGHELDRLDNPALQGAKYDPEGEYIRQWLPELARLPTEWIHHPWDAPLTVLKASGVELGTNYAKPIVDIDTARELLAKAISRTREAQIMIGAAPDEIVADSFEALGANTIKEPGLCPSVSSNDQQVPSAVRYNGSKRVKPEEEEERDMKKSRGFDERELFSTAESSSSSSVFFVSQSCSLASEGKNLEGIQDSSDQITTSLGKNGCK

| binding [1] | binding [2] | Substance |
| --- | --- | --- |
| binds | – | Drosophila dCRY (from UniProt O77059 1-542) (receptor) |
| – | binds | Arabidopsis cryptochrome 2 (CRY2) (from UniProt Q96524 1-612) (receptor) |
